Data: PubChem BioAssay AID602441 (National Center for Advancing Translational Sciences (NCATS), 2012)
In all, about 1,300 compounds went through this assay and fewer than 10 were called active. Another 9% or so got no clear call; they are omitted. The call rests on the fitted dose curve; in most records, active means well fitted curve in the direction sought with a large enough effect; inconclusive means small, poorly fitted or top-dose-only effect, or another doubt; inactive means no such curve, though single readings can be large or run the other way. This is one part of the list.

Assay: qHTS for antagonists of the Thyroid Stimulation Hormone Receptor: Hit Validation in Parental Cell Line; further: 0% is about no effect
Settings: parental HEK293 cells lacking TSHR, counter-screen; series mostly up to 56.9 µM; activity change, negative = inhibition: at the top concentration
Text: The thyroid-stimulating hormone receptor (TSHR) is a member of the 7 trans-membrane-spanning receptor (7TMR) family of cell surface receptors. TSHR-mediated hyperthyroidism is important in thyroid pathology. The development of small molecule antagonists of TSHR may lead to therapeutic approaches for TSHR-mediated hyperthyroidism caused by constitutively activating mutations or stimulating auto-antibodies associated with Graves' disease. Graves' disease is the leading cause of hyperthyroidism and is caused by autoantibodies that stimulate TSHR (TsAbs) causing thyroid growth and unregulated overproduction of thyroid hormones and existing treatments have liabilities (agranulocytosis). In addition, TSHRs are known to be expressed in multiple extrathyroidal tissues including bone, brain, kidney, testis, fat and cells of the immune system but the role of the TSHR in these tissues is not clear. Therefore, TSHR antagonists/inverse agonists could be used as probes of extrathyroidal TSHR function. Finally, TSHR inverse agonists, which are a subclass of antagonists that inhibit agonist-independent (or basal or constitutive) TSHR signaling, could be used to inhibit TSH-independent signaling in patients with recurrent or metastatic thyroid cancer who are receiving thyroid hormone to suppress TSH.
In collaboration between scientist from the NCGC and the NIDDK, a miniaturized HTRF high-throughput screen was developed. It's a cell based assay, where an anti cAMP antibody contains a fluorescent cryptate tag (excitation 337 nm; emission 620 nm) and the acceptor is cAMP-d2 (excitation 620 nm; emission 665 nm). When antibody and cAMP-d2 interact and are excited by a 337 nm light, a FRET occurs resulting in emission at 665 nm. The assay is competition between cAMP-d2 and cAMP (from the cell lysate). The homogeneous protocol allows for one step dispense after stimulation that is automation friendly. This is a hit validation assay in a counterscreen using parental HEK 293 cells lines.
NIH Chemical Genomics Center [NCGC]
NIH Molecular Libraries Probe Centers Network [MLPCN]
Assay Provider: Marvin Gershengorn, NIDDK
An anti cAMP antibody contains a fluorescent cryptate tag (excitation 337 nm; emission 620 nm) and the acceptor is cAMP-d2 (excitation 620 nm; emission 665 nm). When antibody and cAMP-d2 interact and are excited by a 337 nm light, a FRET occurs resulting in emission at 665 nm. The assay is competition between cAMP-d2 and cAMP (from the cell lysate). The homogeneous protocol allows for one step dispense after stimulation that is automation friendly. This assay uses parental HEK-EM 293 cells

Row | Structure (SMILES) | activity change, negative = inhibition
1 | O=C(NCCCN1CCOCC1)c1ccc2c(c1)N(Cc1ccc(Cl)cc1)C(=O)c1ccccc1S2=O (stereo not given) | inactive: -3.57%
2 | O=S(=O)(Nc1cccc(-c2ccc(N3CCCCCC3)nn2)c1)c1ccc(F)cc1 | inactive: 3.38%
3 | CCCn1c(COc2ccccc2OC)nc2ccccc21 | inactive: 2.13%
4 | CCc1ccc(NC(=O)c2nc(S(=O)(=O)Cc3ccccc3)ncc2Cl)cc1 | inactive: 4.16%
5 | O=C(COCc1cc(-c2cccs2)on1)NC1CCCCC1 | inactive: 0.869%
6 | CCOc1ccnc2c1c(=O)n(Cc1cc(OC)cc(OC)c1)c(=O)n2C | inactive: 3.72%
7 | COc1ccc(NS(=O)(=O)c2ccc(N/N=C(\C)c3ccncc3)c([N+](=O)[O-])c2)cc1 | inactive: -6.85%
8 | O=C(NCc1cccnc1)c1nc(-c2ccccc2)n(-c2ccccc2)n1 | inactive: -1.31%
9 | COc1ccc(CN(C)C(=O)COC(=O)c2ccc(-c3ccccc3)cc2)c(OC)c1OC | inactive: -6.46%
10 | Cc1ccc(Oc2cc(NC(=O)CCCn3nc([N+](=O)[O-])cc3C)cc([N+](=O)[O-])c2)cc1 | inactive: -3.73%
11 | Cc1sc2ncn(CC(=O)NCCCC(=O)NCc3ccc(F)cc3)c(=O)c2c1C | inactive: 1.93%
12 | CSCc1cc(N2CCOCC2)nc(SCc2ccc(Cl)cc2Cl)n1 | inactive: -1.36%
13 | O=C(c1cccc(Cl)c1)N1CCN(Cc2ccc3c(c2)OCO3)CC1 | inactive: 3.11%
14 | O=C(CN1C(=O)c2ccccc2S1(=O)=O)NCCSCc1cccc(Cl)c1 | inactive: -1.03%
15 | CCOc1ccccc1-n1c(=S)sc2c(=O)n(-c3ccc(F)cc3)c(SCC(=O)O)nc21 | inactive: 3.25%
16 | Cc1sc2ncnc(N3CCN(CCOc4ccc(Cl)cc4)CC3)c2c1C | inactive: 2.16%
17 | CCOC(=O)C1CCCN(S(=O)(=O)c2cnc(Cl)c(Br)c2)C1 (stereo not given) | inactive: 2.51%
18 | COc1ccc(-c2ccc(SCc3ccccn3)nn2)cc1OC | inactive: 5.18%
19 | CCOc1ccccc1NC(=O)c1nc(S(=O)(=O)Cc2cccc(C)c2)ncc1Cl | inactive: -8.41%
20 | COc1ccc(-c2nnc(CSc3nc4ccccc4c(=O)n3CC3CCCO3)o2)cc1OC (stereo not given) | inactive: 1.83%
21 | COc1ccc(-n2nc(C(=O)NCC(=O)NCCCN3CCN(C)CC3)c3ccccc3c2=O)cc1 | inactive: 4.12%
22 | c1ccc2c(CSc3ncnc4nc[nH]c34)cccc2c1 | inactive: 3.53%

Row | Structure (SMILES) | activity change, negative = inhibition
23 | O=C(COC(=O)c1cc(S(=O)(=O)N2CCOCC2)c(Cl)cc1Cl)c1ccc[nH]1 | inactive: -6.75%
24 | O=C1C=C(c2ccc(Cl)c(C(F)(F)F)c2)C[C@@H](c2ccc(F)cc2)C1 | inactive: -0.527%
25 | C(=N\Nc1nc2ccccc2[nH]1)/c1ccncc1 | inactive: -5.98%
26 | CCC(C)Sc1ccc(-c2nc3ccc(C)cn3c2NCc2ccccc2)cc1OC (stereo not given) | inactive: -12%
27 | Cc1onc(-c2ccccc2Cl)c1C(=O)NC(=S)Nc1ccc(C(C)C)cc1 | inactive: 4.35%
28 | COc1cccc(/C=N/NC(=O)C(=O)N2CCCC2)c1O | inactive: 4.42%
29 | CCOc1ccc(-n2c(SCC(=O)Nc3cc(C)on3)nc3c(c2=O)SCC3)cc1 | inactive: 0.0503%
30 | COc1cc(NC(=O)C(C)C)ccc1NC(=O)c1ccco1 | inactive: -2.25%
31 | CS(=O)(=O)N(CC(=O)N1CCOCC1)c1cccc(F)c1 | inactive: 4.72%
32 | O=C(/C=C/c1ccco1)Nc1ccc(Oc2ccc(Cl)cc2)cc1 | inactive: -1.52%
33 | O=C(Nc1ccc(N=Nc2ccccc2)cc1)c1ccccc1Cl | inactive: -5.44%
34 | COc1cc(NS(=O)(=O)c2ccc(C)cc2C)cc(OC)c1OC | inactive: 1.77%
35 | O=c1[nH]c(=O)c2nnc(N/N=C/c3ccccc3F)nc2[nH]1 | inactive: 2.3%
36 | O=[N+]([O-])c1ccc(N2CCN(C(=S)NCc3ccc(Cl)cc3)CC2)cc1 | inactive: -3.57%
37 | O=C(CSc1nc(-c2ccc(Cl)cc2)cs1)Nc1cccc([N+](=O)[O-])c1 | inactive: -11.1%
38 | COc1ccccc1NC(=O)c1nc(S(=O)(=O)Cc2ccccc2)ncc1Cl | inactive: -5.56%
39 | O=C(Nn1cnnc1)C(c1ccccc1)c1ccccc1 | inactive: 6.14%
40 | O=C(CN1C(=O)NC2(CCCc3ccccc32)C1=O)N1CCN(c2cccc(C(F)(F)F)c2)CC1 (stereo not given) | inactive: 3.09%
41 | Cc1ccc(S(=O)(=O)N(Cc2ccccc2)c2ccccc2C(=O)N2CCCCC2)cc1 | inactive: -3.47%
42 | CCCCn1c(/N=C/c2ccccc2NS(=O)(=O)c2ccc(C)cc2)nc2ccccc21 | inactive: -2.31%
43 | Cc1ccc(CN2C(=O)c3ccccc3Sc3ccc(C(=O)NCCCN4CCOCC4)cc32)cc1 | inactive: -3.51%
44 | Cc1cccc(OC2CCN(Cc3nc(CC4CC4)no3)CC2)c1 | inactive: 2.14%

Row | Structure (SMILES) | activity change, negative = inhibition
45 | Nc1nc(SCC(=O)Nc2ccc([N+](=O)[O-])cc2)[nH]c(=O)c1NC(=O)c1ccc(Br)cc1 | inactive: -0.104%
46 | CCCn1nnc(NC(=O)C(C)Oc2ccc(Cl)cc2Cl)n1 (stereo not given) | inactive: 0.679%
47 | Cc1ccc(-c2ccc(/C=N/N=C3/NC(=O)C(CC(=O)O)S3)o2)c([N+](=O)[O-])c1 (stereo not given) | inactive: 2.07%
48 | CCn1nc([N+](=O)[O-])c(C(C#N)c2nc3cc(C(F)(F)F)ccc3s2)c(Cl)c1=O (stereo not given) | inactive: -1.01%
49 | Cc1cc(C)n(C(=O)/C(C#N)=N/Nc2cc(Cl)cc(Cl)c2)n1 | inactive: 0.0538%
50 | Cc1nn(CCCC(=O)Nc2cc(Oc3ccccc3)cc([N+](=O)[O-])c2)c(C)c1[N+](=O)[O-] | inactive: -1.09%
51 | COc1ccc(CN2CCCN(C)CC2)c(OC)c1C | inactive: 0.262%
52 | O=C(NCCN1CCOCC1)c1c(Cl)cccc1Cl | inactive: 3.93%
53 | N=c1oc2ccccc2cc1C(=O)NC1CCCCCC1 | inactive: 2.24%
54 | O=C(Nc1c(F)cc(F)cc1Br)c1cc(-c2ccc(O)cc2)on1 | inactive: -6.63%
55 | N#C/C(=C\c1ccc(Oc2ccc(C(F)(F)F)cc2[N+](=O)[O-])cc1)c1nc2ccccc2[nH]1 | inactive: -3.12%
56 | COc1cccc(CNC(=O)c2nnn(CC(=O)Nc3cc(Cl)ccc3C)c2N)c1 | inactive: -0.529%
57 | CC1Cc2ccccc2N1C(=O)COC(=O)/C=C/c1cccc(F)c1 (stereo not given) | inactive: -1.49%
58 | O=C1NC(=S)N(C(=O)c2ccc(F)cc2)/C1=C/c1ccccc1 | inactive: -4.61%
59 | Cc1ccc(OC(F)F)c(NC(=O)Nc2cccc(C(F)(F)F)c2)c1 | inactive: -4.88%
60 | COc1ccc(NS(=O)(=O)c2cc(-c3cnc(C4CC4)o3)ccc2C)cc1 | inactive: -1.1%
61 | O=[N+]([O-])c1ccc(S(=O)(=O)c2ccccc2)nc1 | inactive: -8.08%
62 | N/C(=N\OC(=O)Nc1ccccc1)c1cccc(C(F)(F)F)c1 | inactive: -2.45%
63 | N#Cc1c(C(F)(F)F)cc(-c2ccc(Cl)cc2)[nH]c1=O | inactive: -0.329%
64 | Cc1ccc(NC(=O)C(C)c2ccc(-c3ccccc3)c(F)c2)cc1 (stereo not given) | inactive: 0.0015%
65 | O=C(Nc1ccncc1)c1cccc(S(=O)(=O)N2CCc3ccccc32)c1 | inactive: -2.96%

4 entries drawn at random from the list so far:
Row | Structure (SMILES) | activity change, negative = inhibition
49 | Cc1cc(C)n(C(=O)/C(C#N)=N/Nc2cc(Cl)cc(Cl)c2)n1 | inactive: 0.0538%
58 | O=C1NC(=S)N(C(=O)c2ccc(F)cc2)/C1=C/c1ccccc1 | inactive: -4.61%
62 | N/C(=N\OC(=O)Nc1ccccc1)c1cccc(C(F)(F)F)c1 | inactive: -2.45%
64 | Cc1ccc(NC(=O)C(C)c2ccc(-c3ccccc3)c(F)c2)cc1 (stereo not given) | inactive: 0.0015%
